Laboratory results published in paper PMC5004903.
No constants are given. Whether binding was seen depends on the method and setting. Binding seen in cells or lysates may run through a third protein. These calls come from enrichment with a bait or labelling near it, and not all partners need be listed. No binding means not detected with the bait.

By UniProt entry, the sequences of proteins in these tests, tags left out. Where a name states a change or a piece, a line headed by the entry shows the natural chain unless it says otherwise.
UniProt Q9Z248: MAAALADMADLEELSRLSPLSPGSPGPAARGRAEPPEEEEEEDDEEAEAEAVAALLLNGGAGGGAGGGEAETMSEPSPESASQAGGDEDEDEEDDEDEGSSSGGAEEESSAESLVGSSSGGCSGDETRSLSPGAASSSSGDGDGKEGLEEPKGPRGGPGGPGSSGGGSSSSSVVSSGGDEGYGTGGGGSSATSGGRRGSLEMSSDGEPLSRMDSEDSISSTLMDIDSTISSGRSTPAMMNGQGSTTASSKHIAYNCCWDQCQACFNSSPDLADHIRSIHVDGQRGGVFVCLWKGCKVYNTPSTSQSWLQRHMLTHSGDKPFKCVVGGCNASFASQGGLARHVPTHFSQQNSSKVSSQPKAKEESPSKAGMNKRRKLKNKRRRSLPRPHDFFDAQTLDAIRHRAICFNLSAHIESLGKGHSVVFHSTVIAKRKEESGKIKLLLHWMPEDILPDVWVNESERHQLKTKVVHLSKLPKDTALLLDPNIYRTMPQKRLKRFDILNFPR
UniProt Q9Z1B8: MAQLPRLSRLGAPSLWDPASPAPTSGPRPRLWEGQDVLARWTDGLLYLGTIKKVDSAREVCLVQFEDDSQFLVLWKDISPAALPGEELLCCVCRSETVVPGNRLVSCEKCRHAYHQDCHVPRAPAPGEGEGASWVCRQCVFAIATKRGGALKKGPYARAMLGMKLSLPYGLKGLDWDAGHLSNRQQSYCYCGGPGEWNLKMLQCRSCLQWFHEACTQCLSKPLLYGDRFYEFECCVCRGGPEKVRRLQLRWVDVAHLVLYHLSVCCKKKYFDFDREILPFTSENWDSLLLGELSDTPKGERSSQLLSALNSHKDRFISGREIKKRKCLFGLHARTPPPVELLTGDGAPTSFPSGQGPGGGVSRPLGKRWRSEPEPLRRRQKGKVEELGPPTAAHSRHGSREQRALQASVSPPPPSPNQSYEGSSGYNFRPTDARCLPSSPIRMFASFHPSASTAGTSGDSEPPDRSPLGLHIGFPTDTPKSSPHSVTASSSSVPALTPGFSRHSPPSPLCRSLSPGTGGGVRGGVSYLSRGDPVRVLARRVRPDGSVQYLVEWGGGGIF
UniProt Q02395: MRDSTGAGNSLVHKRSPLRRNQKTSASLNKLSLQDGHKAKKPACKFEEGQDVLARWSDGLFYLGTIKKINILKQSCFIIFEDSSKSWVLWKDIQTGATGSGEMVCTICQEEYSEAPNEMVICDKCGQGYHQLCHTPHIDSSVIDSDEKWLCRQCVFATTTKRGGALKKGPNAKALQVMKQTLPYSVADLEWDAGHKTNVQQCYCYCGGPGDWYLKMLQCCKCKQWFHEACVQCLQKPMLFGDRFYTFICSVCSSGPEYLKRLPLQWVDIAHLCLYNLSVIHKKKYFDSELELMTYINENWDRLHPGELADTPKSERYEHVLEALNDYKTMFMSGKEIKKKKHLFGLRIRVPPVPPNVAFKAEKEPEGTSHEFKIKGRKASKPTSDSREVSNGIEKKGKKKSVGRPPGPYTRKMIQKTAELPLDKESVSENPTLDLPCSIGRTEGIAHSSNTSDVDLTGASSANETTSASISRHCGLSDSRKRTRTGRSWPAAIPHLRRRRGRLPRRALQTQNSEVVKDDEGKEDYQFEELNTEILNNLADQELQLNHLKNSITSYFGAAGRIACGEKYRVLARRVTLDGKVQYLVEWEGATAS

B1: C17ORF96 homologue protein (endogenous) (protein, UniProt Q7TNS8 1-369)
chain: METLCPPPRLAVPASPRGSPCSPTPLKPRRGTPEFSPLCLRALAFCALAKPRPSSLGLGPGELAPRTPVLLGPPASPCTGGWAADGLKHLGGQAGRPSDVSSPAREDADVAVCPGGGEEEEGGGGFPHFGAGSCAPPGRCPAPLRPQDSPTNPAWSPPRPARGLDAASSPPLEPGSPPPSPPAGLSPEPAPSEQPVPASEAPGGGDPAPTAPEAPALSPSTADAAPDPPRDLRQEHFNRLIRRSKLWCYAKGFALDTPSLRRGPERPAAKARGAAKKRRRPAPPPPSVQPRRPVPTLPTSSTFSLLDCFPCPPALVVEENGDLGPASSLRLQGDAKPPPAHPLWKWQMGGPAVPEPPGLKSWWVNLEEL

Biological target: Flag-2xStrepII-tagged (FS2) AEBP2 (mouse) (UniProt Q9Z248)
Test: affinity purification with mass spectrometry; FS2-AEBP2 complexes immunoprecipitated from nuclear cell extract of E14 mESCs in the presence of benzonase; LC-MS/MS; two independent immunoprecipitation experiments

Molecule	binding
PCL1 (PHF1), endogenous (from UniProt Q9Z1B8 1-559)	no binding
PCL2 (MTF2), endogenous (from UniProt Q02395 1-593)	no binding
B1	no binding
